PubChem BioAssay AID602196 | INSERM, 2012
Shown is one part, drawn at random, of about 23,000 reagents. 455 of them (2%) were called active. 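Active includes both protection and sensitisation; some change values fall well beyond the stated -50 to +50 range.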 Not all columns of the deposit are shown. The record does not give: the amount of reagent.

Assay: 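Knock-downs that protect lung cancer cells from cisplatin or sensitise them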
Cells: human A549 lung cancer cells
Knock-down reagent: siRNA pair against human genes
Timing: 48 h transfection before cisplatin; time from cisplatin to read-out not stated
Challenge: cisplatin at a dose killing half of control-siRNA cells; exact dose and duration not given
Detection: 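Shift in cisplatin death relative to control siRNA, from -50 (all cells die) to +50 (no cells die); siRNAs harmful on their own scored 0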
Reading the numbers: two-siRNA summed score (-2 to +2): higher = both siRNAs protect from cisplatin killing; -2 means both sensitise; mean protection from cisplatin (shift in death): higher = protection from cisplatin killing
Rule for the call: 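siRNAs harmful alone (LDH or WST-1) get 0; others get +1 for less and -1 for more cisplatin killing; genes are active when the two siRNAs give the same sign, summing to ±2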
Meaning of the calls: active = both siRNAs shift cisplatin killing the same way; inactive = no consistent shift, or siRNA harmful alone

{"gene":"LOC441496","two-siRNA summed score (-2 to +2)":0,"mean protection from cisplatin (shift in death) (%)":9.2,"Call":"inactive"}
{"gene":"CARF","two-siRNA summed score (-2 to +2)":0,"mean protection from cisplatin (shift in death) (%)":7.2,"Call":"inactive"}
{"gene":"LOC400523","two-siRNA summed score (-2 to +2)":0,"mean protection from cisplatin (shift in death) (%)":11.4,"Call":"inactive"}
{"gene":"SH2D1A","two-siRNA summed score (-2 to +2)":0,"mean protection from cisplatin (shift in death) (%)":1.8,"Call":"inactive"}
{"gene":"TTL","two-siRNA summed score (-2 to +2)":0,"mean protection from cisplatin (shift in death) (%)":6.5,"Call":"inactive"}
{"gene":"LOC442032","two-siRNA summed score (-2 to +2)":0,"mean protection from cisplatin (shift in death) (%)":10.9,"Call":"inactive"}
{"gene":"CTU1","two-siRNA summed score (-2 to +2)":0,"mean protection from cisplatin (shift in death) (%)":1.8,"Call":"inactive"}
{"gene":"NDUFB3","two-siRNA summed score (-2 to +2)":0,"mean protection from cisplatin (shift in death) (%)":4.1,"Call":"inactive"}
{"gene":"B3GALT2","two-siRNA summed score (-2 to +2)":0,"mean protection from cisplatin (shift in death) (%)":6.9,"Call":"inactive"}
{"gene":"CRIP1","two-siRNA summed score (-2 to +2)":1,"mean protection from cisplatin (shift in death) (%)":3.9,"Call":"inactive"}
{"gene":"BAGE","two-siRNA summed score (-2 to +2)":0,"mean protection from cisplatin (shift in death) (%)":0.3,"Call":"inactive"}
{"gene":"FN3K","two-siRNA summed score (-2 to +2)":1,"mean protection from cisplatin (shift in death) (%)":14.4,"Call":"inactive"}
{"gene":"SUPT16H","two-siRNA summed score (-2 to +2)":-1,"mean protection from cisplatin (shift in death) (%)":-7.2,"Call":"inactive"}
{"gene":"ATAD3B","two-siRNA summed score (-2 to +2)":0,"mean protection from cisplatin (shift in death) (%)":-3.1,"Call":"inactive"}
{"gene":"LONRF2","two-siRNA summed score (-2 to +2)":1,"mean protection from cisplatin (shift in death) (%)":17.4,"Call":"inactive"}
{"gene":"DEFA5","two-siRNA summed score (-2 to +2)":0,"mean protection from cisplatin (shift in death) (%)":5.5,"Call":"inactive"}
{"gene":"SLC7A7","two-siRNA summed score (-2 to +2)":0,"mean protection from cisplatin (shift in death) (%)":2.9,"Call":"inactive"}

Just “two-siRNA summed score (-2 to +2)”, for 4 of the entries above:
CTU1 = 0
NDUFB3 = 0
B3GALT2 = 0
CRIP1 = 1

The listing continues:
{"gene":"ATE1","two-siRNA summed score (-2 to +2)":1,"mean protection from cisplatin (shift in death) (%)":6.3,"Call":"inactive"}
{"gene":"FNBP1","two-siRNA summed score (-2 to +2)":0,"mean protection from cisplatin (shift in death) (%)":5.3,"Call":"inactive"}
{"gene":"LOC401537","two-siRNA summed score (-2 to +2)":-1,"mean protection from cisplatin (shift in death) (%)":-4.3,"Call":"inactive"}
{"gene":"LOC390213","two-siRNA summed score (-2 to +2)":1,"mean protection from cisplatin (shift in death) (%)":3.3,"Call":"inactive"}
{"gene":"IRAK1","two-siRNA summed score (-2 to +2)":0,"mean protection from cisplatin (shift in death) (%)":-5.2,"Call":"inactive"}
{"gene":"CASP1","two-siRNA summed score (-2 to +2)":-2,"mean protection from cisplatin (shift in death) (%)":-24.8,"Call":"active"}
{"gene":"OR1J2","two-siRNA summed score (-2 to +2)":-1,"mean protection from cisplatin (shift in death) (%)":-8.4,"Call":"inactive"}
{"gene":"LINC01144","two-siRNA summed score (-2 to +2)":0,"mean protection from cisplatin (shift in death) (%)":-4.3,"Call":"inactive"}
{"gene":"YWHAZ","two-siRNA summed score (-2 to +2)":-1,"mean protection from cisplatin (shift in death) (%)":-5.4,"Call":"inactive"}
{"gene":"LOC401887","two-siRNA summed score (-2 to +2)":0,"mean protection from cisplatin (shift in death) (%)":14,"Call":"inactive"}
{"gene":"TTC9B","two-siRNA summed score (-2 to +2)":0,"mean protection from cisplatin (shift in death) (%)":9.3,"Call":"inactive"}
{"gene":"CIDEA","two-siRNA summed score (-2 to +2)":0,"mean protection from cisplatin (shift in death) (%)":-3.4,"Call":"inactive"}
{"gene":"LOC388622","two-siRNA summed score (-2 to +2)":0,"mean protection from cisplatin (shift in death) (%)":14.8,"Call":"inactive"}
{"gene":"SPDYA","two-siRNA summed score (-2 to +2)":0,"mean protection from cisplatin (shift in death) (%)":7.3,"Call":"inactive"}
